No constants are given. Whether binding was seen depends on the method and setting. In cells and extracts the contact can be indirect. A yes stands for co-enrichment or nearness to the bait. Other partners may have been found.
Target: T1, CLN7 (human (endogenous in SH-SY5Y)) (UniProt Q8NHS3)
T1 sequence: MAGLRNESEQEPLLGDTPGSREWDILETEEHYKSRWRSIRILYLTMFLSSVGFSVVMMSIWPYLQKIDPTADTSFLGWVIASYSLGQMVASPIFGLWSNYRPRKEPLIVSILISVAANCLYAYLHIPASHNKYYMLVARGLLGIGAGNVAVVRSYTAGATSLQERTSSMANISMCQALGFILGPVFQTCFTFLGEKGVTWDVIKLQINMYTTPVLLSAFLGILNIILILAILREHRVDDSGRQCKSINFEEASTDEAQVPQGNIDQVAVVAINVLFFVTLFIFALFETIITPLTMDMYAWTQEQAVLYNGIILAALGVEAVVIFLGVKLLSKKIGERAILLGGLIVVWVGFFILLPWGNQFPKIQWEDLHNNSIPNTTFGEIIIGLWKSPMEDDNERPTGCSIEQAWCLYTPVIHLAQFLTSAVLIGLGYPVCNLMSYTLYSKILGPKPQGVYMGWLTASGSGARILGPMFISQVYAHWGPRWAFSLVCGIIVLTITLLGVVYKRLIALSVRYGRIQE
Test: affinity purification with mass spectrometry; endogenous CLN7 immunoprecipitated from 2.5 mg SH-SY5Y lysate with a polyclonal anti-CLN7 antibody raised against L9 (351-421aa, Proteintech) on G-sepharose beads; IgG as non-specific binding control; 4 independent replicates; cells under steady state culture conditions

B1: DHX30 (protein, UniProt Q7L2E3 1-1194)
chain: MFSLDSFRKDRAQHRQRQCKLPPPRLPPMCVNPTPGGTISRASRDLLKEFPQPKNLLNSVIGRALGISHAKDKLVYVHTNGPKKKKVTLHIKWPKSVEVEGYGSKKIDAERQAAAAACQLFKGWGLLGPRNELFDAAKYRVLADRFGSPADSWWRPEPTMPPTSWRQLNPESIRPGGPGGLSRSLGREEEEDEEEELEEGTIDVTDFLSMTQQDSHAPLRDSRGSSFEMTDDDSAIRALTQFPLPKNLLAKVIQIATSSSTAKNLMQFHTVGTKTKLSTLTLLWPCPMTFVAKGRRKAEAENKAAALACKKLKSLGLVDRNNEPLTHAMYNLASLRELGETQRRPCTIQVPEPILRKIETFLNHYPVESSWIAPELRLQSDDILPLGKDSGPLSDPITGKPYVPLLEAEEVRLSQSLLELWRRRGPVWQEAPQLPVDPHRDTILNAIEQHPVVVISGDTGCGKTTRIPQLLLERYVTEGRGARCNVIITQPRRISAVSVAQRVSHELGPSLRRNVGFQVRLESKPPSRGGALLFCTVGILLRKLQSNPSLEGVSHVIVDEVHERDVNTDFLLILLKGLQRLNPALRLVLMSATGDNERFSRYFGGCPVIKVPGFMYPVKEHYLEDILAKLGKHQYLHRHRHHESEDECALDLDLVTDLVLHIDARGEPGGILCFLPGWQEIKGVQQRLQEALGMHESKYLILPVHSNIPMMDQKAIFQQPPVGVRKIVLATNIAETSITINDIVHVVDSGLHKEERYDLKTKVSCLETVWVSRANVIQRRGRAGRCQSGFAYHLFPRSRLEKMVPFQVPEILRTPLENLVLQAKIHMPEKTAVEFLSKAVDSPNIKAVDEAVILLQEIGVLDQREYLTTLGQRLAHISTDPRLAKAIVLAAIFRCLHPLLVVVSCLTRDPFSSSLQNRAEVDKVKALLSHDSGSDHLAFVRAVAGWEEVLRWQDRSSRENYLEENLLYAPSLRFIHGLIKQFSENIYEAFLVGKPSDCTLASAQCNEYSEEEELVKGVLMAGLYPNLIQVRQGKVTRQGKFKPNSVTYRTKSGNILLHKSTINREATRLRSRWLTYFMAVKSNGSVFVRDSSQVHPLAVLLLTDGDVHIRDDGRRATISLSDSDLLRLEGDSRTVRLLKELRRALGRMVERSLRSELAALPPSVQEEHGQLLALLAELLRGPCGSFDVRKTADD
In the case of B1, the binding is reported as “binds”.

B2: DHX57 (protein, UniProt Q6P158 1-1386)
chain: MSSSVRRKGKPGKGGGKGSSRGGRGGRSHASKSHGSGGGGGGGGGGGGGNRKASSRIWDDGDDFCIFSESRRPSRPSNSNISKGESRPKWKPKAKVPLQTLHMTSENQEKVKALLRDLQEQDADAGSERGLSGEEEDDEPDCCNDERYWPAGQEPSLVPDLDPLEYAGLASVEPYVPEFTVSPFAVQKLSRYGFNTERCQAVLRMCDGDVGASLEHLLTQCFSETFGERMKISEAVNQISLDECMEQRQEEAFALKSICGEKFIERIQNRVWTIGLELEYLTSRFRKSKPKESTKNVQENSLEICKFYLKGNCKFGSKCRFKHEVPPNQIVGRIERSVDDSHLNAIEDASFLYELEIRFSKDHKYPYQAPLVAFYSTNENLPLACRLHISEFLYDKALTFAETSEPVVYSLITLLEEESEIVKLLTNTHHKYSDPPVNFLPVPSRTRINNPACHKTVIPNNSFVSNQIPEVEKASESEESDEDDGPAPVIVENESYVNLKKKISKRYDWQAKSVHAENGKICKQFRMKQASRQFQSILQERQSLPAWEERETILNLLRKHQVVVISGMTGCGKTTQIPQFILDDSLNGPPEKVANIICTQPRRISAISVAERVAKERAERVGLTVGYQIRLESVKSSATRLLYCTTGVLLRRLEGDTALQGVSHIIVDEVHERTEESDFLLLVLKDIVSQRPGLQVILMSATLNAELFSDYFNSCPVITIPGRTFPVDQFFLEDAIAVTRYVLQDGSPYMRSMKQISKEKLKARRNRTAFEEVEEDLRLSLHLQDQDSVKDAVPDQQLDFKQLLARYKGVSKSVIKTMSIMDFEKVNLELIEALLEWIVDGKHSYPPGAILVFLPGLAEIKMLYEQLQSNSLFNNRRSNRCVIHPLHSSLSSEEQQAVFVKPPAGVTKIIISTNIAETSITIDDVVYVIDSGKMKEKRYDASKGMESLEDTFVSQANALQRKGRAGRVASGVCFHLFTSHHYNHQLLKQQLPEIQRVPLEQLCLRIKILEMFSAHNLQSVFSRLIEPPHTDSLRASKIRLRDLGALTPDERLTPLGYHLASLPVDVRIGKLMLFGSIFRCLDPALTIAASLAFKSPFVSPWDKKEEANQKKLEFAFANSDYLALLQAYKGWQLSTKEGVRASYNYCRQNFLSGRVLQEMASLKRQFTELLSDIGFAREGLRAREIEKRAQGGDGVLDATGEEANSNAENPKLISAMLCAALYPNVVQVKSPEGKFQKTSTGAVRMQPKSAELKFVTKNDGYVHIHPSSVNYQVRHFDSPYLLYHEKIKTSRVFIRDCSMVSVYPLVLFGGGQVNVQLQRGEFVVSLDDGWIRFVAASHQVAELVKELRCELDQLLQDKIKNPSIDLCTCPRGSRIISTIVKLVTTQ
For B2, the binding was “binds”.

B3: DNAJC2 (protein, UniProt Q99543 1-621)
chain: MLLLPSAADGRGTAITHALTSASTLCQVEPVGRWFEAFVKRRNRNASASFQELEDKKELSEESEDEELQLEEFPMLKTLDPKDWKNQDHYAVLGLGHVRYKATQRQIKAAHKAMVLKHHPDKRKAAGEPIKEGDNDYFTCITKAYEMLSDPVKRRAFNSVDPTFDNSVPSKSEAKDNFFEVFTPVFERNSRWSNKKNVPKLGDMNSSFEDVDIFYSFWYNFDSWREFSYLDEEEKEKAECRDERRWIEKQNRATRAQRKKEEMNRIRTLVDNAYSCDPRIKKFKEEEKAKKEAEKKAKAEAKRKEQEAKEKQRQAELEAARLAKEKEEEEVRQQALLAKKEKDIQKKAIKKERQKLRNSCKTWNHFSDNEAERVKMMEEVEKLCDRLELASLQCLNETLTSCTKEVGKAALEKQIEEINEQIRKEKEEAEARMRQASKNTEKSTGGGGNGSKNWSEDDLQLLIKAVNLFPAGTNSRWEVIANYMNIHSSSGVKRTAKDVIGKAKSLQKLDPHQKDDINKKAFDKFKKEHGVVPQADNATPSERFEGPYTDFTPWTTEEQKLLEQALKTYPVNTPERWEKIAEAVPGRTKKDCMKRYKELVEMVKAKKAAQEQVLNASRAKK
In the case of B3, the binding is reported as “binds”.

B4: EXOSC10 (protein, UniProt Q01780 1-885)
chain: MAPPSTREPRVLSATSATKSDGEMVLPGFPDADSFVKFALGSVVAVTKASGGLPQFGDEYDFYRSFPGFQAFCETQGDRLLQCMSRVMQYHGCRSNIKDRSKVTELEDKFDLLVDANDVILERVGILLDEASGVNKNQQPVLPAGLQVPKTVVSSWNRKAAEYGKKAKSETFRLLHAKNIIRPQLKFREKIDNSNTPFLPKIFIKPNAQKPLPQALSKERRERPQDRPEDLDVPPALADFIHQQRTQQVEQDMFAHPYQYELNHFTPADAVLQKPQPQLYRPIEETPCHFISSLDELVELNEKLLNCQEFAVDLEHHSYRSFLGLTCLMQISTRTEDFIIDTLELRSDMYILNESLTDPAIVKVFHGADSDIEWLQKDFGLYVVNMFDTHQAARLLNLGRHSLDHLLKLYCNVDSNKQYQLADWRIRPLPEEMLSYARDDTHYLLYIYDKMRLEMWERGNGQPVQLQVVWQRSRDICLKKFIKPIFTDESYLELYRKQKKHLNTQQLTAFQLLFAWRDKTARREDESYGYVLPNHMMLKIAEELPKEPQGIIACCNPVPPLVRQQINEMHLLIQQAREMPLLKSEVAAGVKKSGPLPSAERLENVLFGPHDCSHAPPDGYPIIPTSGSVPVQKQASLFPDEKEDNLLGTTCLIATAVITLFNEPSAEDSKKGPLTVAQKKAQNIMESFENPFRMFLPSLGHRAPVSQAAKFDPSTKIYEISNRWKLAQVQVQKDSKEAVKKKAAEQTAAREQAKEACKAAAEQAISVRQQVVLENAAKKRERATSDPRTTEQKQEKKRLKISKKPKDPEPPEKEFTPYDYSQSDFKAFAGNSKSKVSSQFDPNKQTPSGKKCIAAKKIKQSVGNKSMSFPTGKSDRGFRYNWPQR
With B4 the binding was “binds”.
